# Screening data, single-dose tests

T. brucei: 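Whole-parasite assay of Trypanosoma brucei over 72 hours; the read-out is not stated. Compounds at 30 µM. Higher reads as stronger inhibition (inferred: compounds with an IC50 in retests scored well above the rest). Values scatter widely below zero; nearly all retest evidence comes from the higher of the two concentrations used. Of about 64,000 compounds tested this way, about 940 (1.5%) reached 50% or more in at least one test.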
Toxoplasma: 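Assay of Toxoplasma gondii numbers, read through their beta-galactosidase reporter with a colour substrate. Compounds at 10 µM. The record gives no direction; the compounds picked for IC50 retests had high values, so higher reads as fewer parasites. Of about 67,000 compounds tested this way, about 260 (0.38%) reached 50% or more in at least one test.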

Each number is a percent effect as filed.
How 0% and 100% were set is not recorded. Most values in the screen are low, and negative values occur.
This is an unselected part of the compounds tested.
A dash means the value is not listed here; it may have been measured.

| # | structure | T. brucei | Toxoplasma |
|---|---|---|---|
| 1 | `CCS(=O)(=O)N1Cc2ccccc2CC1C(=O)OCc1cc(C)no1` (stereo not drawn) | -34.32 | 4.689 |
| 2 | `CN(Cc1cccnc1)C1CC2(CCN(Cc3cccnc3)CC2)C1.O=C(O)C(F)(F)F.O=C(O)C(F)(F)F.O=C(O)C(F)(F)F` | -674.8 | 19.49 |
| 3 | `CCCc1n[nH]c(C2CN(Cc3nnc(C4CC4)o3)CCO2)n1` (stereo not drawn) | 7.208 | - |
| 4 | `CCc1cn[nH]c1C1CCN(C(=O)c2cc(C(C)=O)c(C)[nH]c2=O)CC1` | -28.21 | 2.809 |
| 5 | `Cc1cnn(CC2CCCCN2Cc2nccn2CC(F)(F)F)c1` (stereo not drawn) | - | 7.713 |
| 6 | `Cc1ncc(CNCC2CCCN2c2cccnn2)s1` (stereo not drawn) | -5.257 | -2.643 |
| 7 | `Cc1ccc(N2CCCC(NC(=O)CCc3ccccn3)C2=O)cc1` (stereo not drawn) | -13.35 | 13.81 |
| 8 | `Cc1nc(N2CCCC2)ncc1-c1cc(O)nc(NCC2CCCO2)n1` (stereo not drawn) | -16.17 | 3.03 |
| 9 | `O=C(NCCc1nnc2n1CCC2)c1ccccc1OC1CCCC1` | 10.23 | -0.767 |
| 10 | `COc1cc2c(cc1CNC(=O)Cc1ccc(C)nc1)OC(C)C2` (stereo not drawn) | 7.362 | 1.364 |
| 11 | `CCc1nnc2n1CCN(C(=O)c1cc3c(F)cccc3[nH]1)C2` | -0.9161 | -3.164 |
| 12 | `CCOc1cccc(CNc2ccccc2C(=O)OC)c1O` | -55.26 | -0.1195 |
| 13 | `CCc1nn(C)c(Cl)c1CN(CC)Cc1cnn(CC)c1` | -21.28 | 1.474 |
| 14 | `OC(CN1CCOCC1)c1cc(Cl)ccc1Cl` (stereo not drawn) | -37.28 | 11.18 |
| 15 | `O=C(O)C(F)(F)F.[H][C@@]12CN(CC(C)C)C[C@]1([H])C(=O)N(CC)C21CCN(S(C)(=O)=O)CC1` | -31.76 | -3.725 |
| 16 | `COc1ccc(OC)c(C(O)CNC(=O)Nc2ccc(F)cc2F)c1` (stereo not drawn) | -11.44 | -49.66 |
| 17 | `CCNc1ccnc(N2Cc3cnc(CC(C)C)nc3C2)n1` | 7.855 | -7.478 |
| 18 | `COc1c(CNCc2ccc(CN(C)C)cc2)c(C)nn1C` | -0.931 | -13.1 |
| 19 | `O=S(=O)(C1CC1)N1CCc2c(CN3CCOCC3)cncc2C1` | -35.14 | 8.853 |
| 20 | `CSCc1noc(CNC(=O)C2CCN(C3CCCCC3)CC2)n1` | 11.41 | -9.185 |
| 21 | `Cc1ncsc1C(=O)NCc1ccnc(N2CCN(C)CC2)c1` | - | -2.97 |
| 22 | `COc1ccc(CCN2CC(NCc3ncc[nH]3)CC2=O)cc1` (stereo not drawn) | 64.92 | 2.368 |
| 23 | `CC(=O)NCc1nnn2c1CN(c1ncc(C)cn1)CCC2` | 6.504 | -21.24 |
| 24 | `CN(CCc1noc(C2CC2)n1)C(=O)CCc1cc2n(n1)CCCNC2` | -18.77 | 2.071 |
| 25 | `Cc1ccc(CCN2CCC(N(C)Cc3noc(C4CC4)n3)C2)cc1` (stereo not drawn) | -17 | -6.391 |
| 26 | `CCn1c(C)nnc1CN(C)C1CCN(Cc2nccn2C)C1` (stereo not drawn) | -48.66 | -1.01 |
| 27 | `NC[C@H]1CC[C@H](C(NC(=O)c2ccccn2)c2ccccn2)CC1` (stereo partly drawn) | 26.46 | -3.61 |
| 28 | `O=C(CC1CN(Cc2ccccc2)CCO1)Nc1ccccc1F` (stereo not drawn) | 29.93 | 0 |
| 29 | `O=C(NCc1ccc(-c2ccn[nH]2)cc1)N1CCC(N2CCCC2)C1` (stereo not drawn) | 50.84 | -1.82 |
| 30 | `Cc1cccn2c(=O)cc(OC(=O)c3ccccc3Cl)nc12` | -6.601 | 19.71 |
| 31 | `[H][C@@]12C[C@H](c3noc(C)n3)O[C@@]1([H])CCN(C(=O)c1ccoc1C)C2` | -40.87 | 0.6631 |
| 32 | `O=C(CNC(=O)c1ccc2c(c1)CCC2)NCCNc1ncccn1` | 19.21 | 10.44 |
| 33 | `COC(=O)c1ccc(N2CCN(CCC#N)C(C)C2)cc1` (stereo not drawn) | -16.72 | -7.47 |
| 34 | `[H][C@]12C[C@H](C(=O)NC)N(S(C)(=O)=O)[C@@]1([H])CN(C(=O)c1ccco1)C2` | 25.5 | 3.419 |
| 35 | `CC(NC(=O)NCCCn1cccn1)c1ccncc1` (stereo not drawn) | 22.99 | 8.837 |
| 36 | `O=C(c1ccc2c(c1)CCO2)N1CCN(c2cnccn2)CC1` | -11.53 | 2.329 |
| 37 | `Cn1cc(C(=O)NCC2CCN(C(=O)NC3CCCCC3)CC2)cn1` | 4.929 | -7.692 |
| 38 | `Cc1cc(CN(C)C(=O)C2CCCN(C(=O)c3ccc(Cl)cc3)C2)no1` (stereo not drawn) | -2.131 | 12.55 |
| 39 | `CCCOc1cc(CNC(=O)Nc2ccc(C)cc2)ccn1` | -13.38 | 15.61 |
| 40 | `Brc1csc(-c2noc(C3COCCO3)n2)c1` (stereo not drawn) | -14.26 | -12.86 |
| 41 | `[H][C@]12CNC[C@@]1(C(=O)N(C)Cc1ccco1)CN(C1CCCC1)C2` | -18.99 | -15.87 |
| 42 | `CN(C)Cc1cc(C2CCN(C(=O)C3CCCNC3)CC2)nn1C.Cl` (stereo not drawn) | -6.305 | -7.499 |
| 43 | `[H][C@@]12CCN(C[C@@H]1CN(CC)CC)[C@@H](CNC(=O)Nc1ccsc1)C2` | -9.273 | -3.681 |
| 44 | `Cc1ccnc(N2CCN(Cc3ccccc3)CC(O)C2)c1` (stereo not drawn) | 7.241 | 2.624 |
| 45 | `CSc1nc2cc(C)n(CC(=O)N3CCCC3)c2c(=O)n1CC(C)C` | 12.54 | 5.006 |
| 46 | `c1ccc(C2=NOC3(CCN(Cc4c[nH]c5ccccc45)CC3)C2)cc1` | - | 73.52 |

Repeated from the top, 2 entries:

structure	T. brucei	Toxoplasma
CCS(=O)(=O)N1Cc2ccccc2CC1C(=O)OCc1cc(C)no1 (stereo not drawn)	-34.32	4.689
CN(Cc1cccnc1)C1CC2(CCN(Cc3cccnc3)CC2)C1.O=C(O)C(F)(F)F.O=C(O)C(F)(F)F.O=C(O)C(F)(F)F	-674.8	19.49

Measurements from “University of Dundee, Small-Polar-MMV Screening Library” (2021), ChEMBL document CHEMBL3988442.